Assay results as given in the supplement of paper PMC10849652.
Some of the results follow.

Protein sequences, listed by entry. Tags and fused reporters are not part of them. Lines headed by an entry give the natural chain unless they say otherwise; changes in a name come on top.
UniProt P56381: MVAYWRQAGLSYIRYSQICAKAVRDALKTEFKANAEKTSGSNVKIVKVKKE
UniProt Q96IX5: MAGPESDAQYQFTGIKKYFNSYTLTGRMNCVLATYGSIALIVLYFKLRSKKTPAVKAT
UniProt Q6P4H8: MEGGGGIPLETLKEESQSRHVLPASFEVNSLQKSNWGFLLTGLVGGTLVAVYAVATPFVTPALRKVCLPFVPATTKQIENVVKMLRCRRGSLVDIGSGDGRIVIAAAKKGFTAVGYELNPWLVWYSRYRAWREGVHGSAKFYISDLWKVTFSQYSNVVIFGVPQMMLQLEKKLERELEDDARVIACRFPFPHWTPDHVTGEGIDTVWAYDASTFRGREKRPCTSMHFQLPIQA
UniProt Q15041, whole entry, looked up: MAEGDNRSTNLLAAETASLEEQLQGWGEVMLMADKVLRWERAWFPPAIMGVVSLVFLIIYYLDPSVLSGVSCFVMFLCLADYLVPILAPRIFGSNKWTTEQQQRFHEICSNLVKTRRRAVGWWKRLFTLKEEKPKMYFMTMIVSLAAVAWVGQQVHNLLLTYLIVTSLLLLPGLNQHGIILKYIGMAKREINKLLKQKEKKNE
UniProt P56134: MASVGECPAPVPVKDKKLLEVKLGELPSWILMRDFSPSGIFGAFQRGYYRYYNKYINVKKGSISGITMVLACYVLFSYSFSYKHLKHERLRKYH
UniProt Q9BPX5, whole entry, looked up: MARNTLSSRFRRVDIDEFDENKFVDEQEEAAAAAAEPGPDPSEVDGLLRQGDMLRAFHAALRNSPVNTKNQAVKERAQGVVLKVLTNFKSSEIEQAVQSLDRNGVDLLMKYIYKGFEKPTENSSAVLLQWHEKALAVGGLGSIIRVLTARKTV
UniProt Q6DD88: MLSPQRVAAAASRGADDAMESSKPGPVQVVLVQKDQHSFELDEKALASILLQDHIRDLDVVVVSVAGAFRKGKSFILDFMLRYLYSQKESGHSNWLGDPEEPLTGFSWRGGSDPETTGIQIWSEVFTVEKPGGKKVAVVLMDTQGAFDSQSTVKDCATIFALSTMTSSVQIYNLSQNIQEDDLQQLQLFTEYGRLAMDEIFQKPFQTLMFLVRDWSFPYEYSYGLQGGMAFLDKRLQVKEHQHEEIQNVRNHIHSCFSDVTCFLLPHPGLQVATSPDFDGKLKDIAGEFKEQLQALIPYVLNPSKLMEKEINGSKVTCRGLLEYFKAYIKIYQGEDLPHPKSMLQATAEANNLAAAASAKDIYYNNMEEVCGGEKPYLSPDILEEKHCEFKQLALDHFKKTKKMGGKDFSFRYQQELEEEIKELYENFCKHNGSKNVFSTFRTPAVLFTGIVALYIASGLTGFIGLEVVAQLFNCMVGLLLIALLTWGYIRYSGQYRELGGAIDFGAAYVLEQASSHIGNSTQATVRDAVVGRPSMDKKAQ
UniProt Q9BZE9, whole entry, looked up: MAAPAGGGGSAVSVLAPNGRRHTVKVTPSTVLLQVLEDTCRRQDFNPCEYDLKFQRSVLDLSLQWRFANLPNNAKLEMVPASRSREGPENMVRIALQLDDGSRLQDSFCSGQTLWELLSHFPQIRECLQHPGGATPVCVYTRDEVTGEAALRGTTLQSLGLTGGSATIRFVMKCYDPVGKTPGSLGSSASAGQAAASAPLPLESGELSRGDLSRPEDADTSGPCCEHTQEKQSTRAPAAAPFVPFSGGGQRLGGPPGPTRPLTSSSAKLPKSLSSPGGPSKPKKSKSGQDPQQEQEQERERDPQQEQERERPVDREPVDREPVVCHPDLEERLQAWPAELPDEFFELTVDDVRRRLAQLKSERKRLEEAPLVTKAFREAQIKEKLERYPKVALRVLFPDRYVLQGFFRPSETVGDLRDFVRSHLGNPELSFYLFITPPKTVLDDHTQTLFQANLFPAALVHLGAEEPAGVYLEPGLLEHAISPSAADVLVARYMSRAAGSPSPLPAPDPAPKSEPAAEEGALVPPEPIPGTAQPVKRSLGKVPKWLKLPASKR
UniProt Q9BSB4: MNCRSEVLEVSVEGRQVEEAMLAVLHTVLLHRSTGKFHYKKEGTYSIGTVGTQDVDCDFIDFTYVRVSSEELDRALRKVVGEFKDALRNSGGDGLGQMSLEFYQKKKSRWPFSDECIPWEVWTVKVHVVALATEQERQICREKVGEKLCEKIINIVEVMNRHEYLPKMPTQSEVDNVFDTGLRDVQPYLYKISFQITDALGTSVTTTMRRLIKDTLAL
UniProt Q6NXE6: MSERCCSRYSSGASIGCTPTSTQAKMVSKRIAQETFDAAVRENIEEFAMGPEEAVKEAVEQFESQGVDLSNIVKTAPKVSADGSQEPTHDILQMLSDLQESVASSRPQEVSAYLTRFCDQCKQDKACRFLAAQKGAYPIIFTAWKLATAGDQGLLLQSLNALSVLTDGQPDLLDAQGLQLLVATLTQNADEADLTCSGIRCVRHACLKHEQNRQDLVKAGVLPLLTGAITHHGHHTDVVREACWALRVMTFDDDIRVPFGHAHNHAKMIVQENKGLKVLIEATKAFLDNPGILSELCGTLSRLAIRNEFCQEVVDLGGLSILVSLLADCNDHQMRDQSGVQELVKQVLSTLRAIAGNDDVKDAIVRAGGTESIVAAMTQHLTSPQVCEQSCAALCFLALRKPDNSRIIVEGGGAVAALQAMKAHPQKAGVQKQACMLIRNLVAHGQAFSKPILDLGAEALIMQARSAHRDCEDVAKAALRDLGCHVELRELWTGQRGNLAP
UniProt Q9Y2G3: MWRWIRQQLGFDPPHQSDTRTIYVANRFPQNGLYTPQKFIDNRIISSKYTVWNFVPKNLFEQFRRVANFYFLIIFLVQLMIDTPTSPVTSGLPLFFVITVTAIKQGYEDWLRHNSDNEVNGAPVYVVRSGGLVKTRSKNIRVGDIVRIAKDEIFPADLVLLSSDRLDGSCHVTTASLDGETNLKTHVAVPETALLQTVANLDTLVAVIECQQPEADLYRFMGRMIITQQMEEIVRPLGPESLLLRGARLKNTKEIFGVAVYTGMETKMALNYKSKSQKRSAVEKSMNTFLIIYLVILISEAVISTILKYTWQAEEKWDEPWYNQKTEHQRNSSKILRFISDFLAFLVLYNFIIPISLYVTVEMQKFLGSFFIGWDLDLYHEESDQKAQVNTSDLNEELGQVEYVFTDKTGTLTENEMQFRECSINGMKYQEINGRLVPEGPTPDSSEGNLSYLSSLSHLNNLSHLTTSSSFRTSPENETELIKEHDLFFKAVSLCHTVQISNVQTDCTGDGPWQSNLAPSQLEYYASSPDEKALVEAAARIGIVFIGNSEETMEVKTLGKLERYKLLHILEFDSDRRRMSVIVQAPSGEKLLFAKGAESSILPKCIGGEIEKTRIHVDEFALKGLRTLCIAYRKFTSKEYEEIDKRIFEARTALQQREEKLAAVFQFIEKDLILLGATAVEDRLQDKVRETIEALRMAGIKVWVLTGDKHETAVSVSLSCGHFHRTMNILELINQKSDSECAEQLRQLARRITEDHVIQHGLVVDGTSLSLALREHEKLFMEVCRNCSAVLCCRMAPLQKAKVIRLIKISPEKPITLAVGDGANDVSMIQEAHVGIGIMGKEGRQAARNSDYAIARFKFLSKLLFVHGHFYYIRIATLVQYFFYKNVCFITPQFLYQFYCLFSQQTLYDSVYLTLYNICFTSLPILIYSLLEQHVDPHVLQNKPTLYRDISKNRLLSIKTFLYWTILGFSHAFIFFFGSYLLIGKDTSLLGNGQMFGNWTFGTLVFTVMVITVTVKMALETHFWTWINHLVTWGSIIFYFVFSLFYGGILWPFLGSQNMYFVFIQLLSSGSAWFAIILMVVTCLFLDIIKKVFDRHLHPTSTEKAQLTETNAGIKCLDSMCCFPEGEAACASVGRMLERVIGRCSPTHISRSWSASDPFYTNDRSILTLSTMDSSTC
UniProt P54259: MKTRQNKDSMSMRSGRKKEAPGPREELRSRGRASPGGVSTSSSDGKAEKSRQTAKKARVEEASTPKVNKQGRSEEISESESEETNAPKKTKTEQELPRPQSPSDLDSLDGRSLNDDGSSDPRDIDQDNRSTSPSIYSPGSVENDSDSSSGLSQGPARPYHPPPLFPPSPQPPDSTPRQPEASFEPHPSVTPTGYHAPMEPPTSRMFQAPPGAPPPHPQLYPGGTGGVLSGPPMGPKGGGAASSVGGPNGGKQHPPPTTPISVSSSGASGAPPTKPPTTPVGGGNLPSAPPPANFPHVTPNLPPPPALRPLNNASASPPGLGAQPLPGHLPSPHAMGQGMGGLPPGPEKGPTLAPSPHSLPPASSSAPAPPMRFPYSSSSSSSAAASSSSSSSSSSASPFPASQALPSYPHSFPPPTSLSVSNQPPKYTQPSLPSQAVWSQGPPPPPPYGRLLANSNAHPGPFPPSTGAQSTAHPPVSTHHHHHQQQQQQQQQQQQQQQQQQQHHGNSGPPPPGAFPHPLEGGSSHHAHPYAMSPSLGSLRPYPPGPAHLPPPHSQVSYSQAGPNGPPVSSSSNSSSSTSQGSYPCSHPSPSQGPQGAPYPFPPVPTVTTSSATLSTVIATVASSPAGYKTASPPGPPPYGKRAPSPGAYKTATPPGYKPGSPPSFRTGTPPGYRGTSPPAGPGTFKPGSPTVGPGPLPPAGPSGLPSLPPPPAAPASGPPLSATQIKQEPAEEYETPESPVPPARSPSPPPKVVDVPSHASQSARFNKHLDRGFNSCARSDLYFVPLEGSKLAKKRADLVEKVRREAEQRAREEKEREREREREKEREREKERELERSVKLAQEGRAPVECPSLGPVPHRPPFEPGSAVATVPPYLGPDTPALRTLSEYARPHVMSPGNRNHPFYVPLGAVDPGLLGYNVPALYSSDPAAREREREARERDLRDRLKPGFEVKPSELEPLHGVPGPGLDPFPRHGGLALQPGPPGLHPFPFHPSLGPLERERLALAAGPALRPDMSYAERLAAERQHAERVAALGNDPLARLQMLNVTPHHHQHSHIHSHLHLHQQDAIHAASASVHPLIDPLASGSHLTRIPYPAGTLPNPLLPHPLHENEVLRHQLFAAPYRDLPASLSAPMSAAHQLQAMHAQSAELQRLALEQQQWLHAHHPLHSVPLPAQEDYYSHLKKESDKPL
UniProt P61421, whole entry, looked up: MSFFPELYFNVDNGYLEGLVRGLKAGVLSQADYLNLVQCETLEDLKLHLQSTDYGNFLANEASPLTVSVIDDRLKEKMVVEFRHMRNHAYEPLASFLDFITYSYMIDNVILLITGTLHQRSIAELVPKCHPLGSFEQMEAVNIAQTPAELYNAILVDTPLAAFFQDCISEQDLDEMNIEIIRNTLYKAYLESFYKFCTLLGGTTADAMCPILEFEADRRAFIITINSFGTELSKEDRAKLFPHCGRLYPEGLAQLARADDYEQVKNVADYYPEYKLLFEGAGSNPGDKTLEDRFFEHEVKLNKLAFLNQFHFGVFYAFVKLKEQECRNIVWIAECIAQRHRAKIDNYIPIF
UniProt P20020: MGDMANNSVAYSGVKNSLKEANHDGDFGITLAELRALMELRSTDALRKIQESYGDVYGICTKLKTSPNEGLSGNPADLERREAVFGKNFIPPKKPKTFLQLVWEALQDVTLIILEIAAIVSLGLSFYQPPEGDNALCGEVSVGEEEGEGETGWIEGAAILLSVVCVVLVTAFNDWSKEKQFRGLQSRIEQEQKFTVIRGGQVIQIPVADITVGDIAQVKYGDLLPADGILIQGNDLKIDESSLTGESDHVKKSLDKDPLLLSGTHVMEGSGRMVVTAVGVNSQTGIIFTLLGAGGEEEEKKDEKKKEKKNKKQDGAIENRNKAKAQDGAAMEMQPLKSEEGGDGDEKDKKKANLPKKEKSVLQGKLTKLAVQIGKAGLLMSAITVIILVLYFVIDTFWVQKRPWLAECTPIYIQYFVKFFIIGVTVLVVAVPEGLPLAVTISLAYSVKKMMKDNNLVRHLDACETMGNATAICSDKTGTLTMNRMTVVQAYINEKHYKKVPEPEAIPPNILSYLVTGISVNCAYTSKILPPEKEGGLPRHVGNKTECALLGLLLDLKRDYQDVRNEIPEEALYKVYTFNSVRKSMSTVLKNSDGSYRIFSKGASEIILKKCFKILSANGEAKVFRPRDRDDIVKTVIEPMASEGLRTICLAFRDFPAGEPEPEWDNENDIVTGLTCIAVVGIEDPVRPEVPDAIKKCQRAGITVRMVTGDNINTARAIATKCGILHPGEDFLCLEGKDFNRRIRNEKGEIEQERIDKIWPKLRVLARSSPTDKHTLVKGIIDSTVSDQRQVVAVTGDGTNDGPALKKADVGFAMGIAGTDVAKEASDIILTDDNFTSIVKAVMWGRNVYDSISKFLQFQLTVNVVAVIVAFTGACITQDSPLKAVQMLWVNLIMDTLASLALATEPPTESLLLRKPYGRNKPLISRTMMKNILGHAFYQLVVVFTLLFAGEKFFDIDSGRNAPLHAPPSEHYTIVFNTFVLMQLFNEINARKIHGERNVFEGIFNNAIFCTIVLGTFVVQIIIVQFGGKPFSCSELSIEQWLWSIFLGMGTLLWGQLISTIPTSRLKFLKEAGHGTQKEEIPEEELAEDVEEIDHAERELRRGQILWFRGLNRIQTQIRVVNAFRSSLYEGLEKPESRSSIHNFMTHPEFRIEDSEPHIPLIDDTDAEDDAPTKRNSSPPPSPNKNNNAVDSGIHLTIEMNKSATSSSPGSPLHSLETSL

Columns and labels:
Assay in all cases: log2 fold change, soluble protein after heating vs DMSO (PISA); higher = thermal stabilisation; K562 cells, 10 uM, 30 min; active = over 0.2 and 3.5 SD of the protein, either way, in both replicates (recomputed)
[1] = compound: CC[C@@H]1C(=O)N(C)c2cnc(Nc3ccc(C(=O)NC4CCN(C)CC4)cc3OC)nc2N1C1CCCC1
How it was run: (§1)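 K562 cells (2×10^6 cells/mL) were treated with 10 μM compound for 30 min, and aliquots were heated for 3 min over 48°C-58°C. Pooled aliquots were extracted in PBS with 0.5% NP-40 at 4°C, and the supernatant after 21,000xg for 90 min was measured by TMTpro 16plex LC-MS/MS with channel sums equalised. Reported thermal stability, relative to control samples and from duplicates, is a log2 fold change.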

[2] = compound: CC[C@@H]1C(=O)N(C)c2cnc(Nc3ccc(C(=O)N[C@H]4CC[C@H](N5CCN(CC6CC6)CC5)CC4)cc3OC)nc2N1C(C)C [volasertib]
How it was run: as §1

[3] = compound: CC[C@H](C)N1C=C(C2=C(C=C(C=C21)C3=CN=C(C=C3)N4CCNCC4)C(=O)NCC5=C(C=C(NC5=O)C)C)C
How it was run: as §1

[4] = compound: CC[C@H](C)[C@@H](C(=O)N[C@@H]([C@@H](C)O)C(=O)N[C@@H](CC(C)C)C(=O)[C@]1(CO1)C)NC(=O)[C@H]([C@@H](C)CC)N(C)C(=O)C [epoxomicin]
How it was run: as §1

[5] = compound: CCn1c(C(=O)N(C2CC2)C2CC2)cc2c3c(ncn3C)c(Nc3cc(C)n(C)n3)nc21
How it was run: as §1

[6] = compound: CCn1cc(-c2ccnc3[nH]c(-c4cccc(CN(C)C)c4)cc23)c(-c2ccc(NC(=O)N(C)C)cc2)n1
How it was run: as §1

[7] = compound: CN(C)CC(=O)Nc1ccc2[nH]c(=O)c3ccccc3c2c1
How it was run: as §1

[8] = compound: CN(CCOC1=CC=C(C=C1)C[C@H]2C(=O)NC(=O)S2)C3=CC=CC=N3 (racemic) [rosiglitazone]
How it was run: as §1

[9] = compound: CN1C2=C(C3=C1C(=O)N(N=C3)CC4=CC(=CC=C4)N)SC(=C2)S(=O)C
How it was run: as §1

[10] = compound: CN1CCC(CNc2ccc3ncc(-c4cccc(OC(F)(F)F)c4)n3n2)CC1
How it was run: as §1

[11] = compound: CN1CCN(CCOc2cc(OC3CCOCC3)c3c(Nc4c(Cl)ccc5c4OCO5)ncnc3c2)CC1 [saracatinib]
How it was run: as §1

[12] = compound: CN1CCN(c2nc(C3=C(c4c[nH]c5ccccc45)C(=O)NC3=O)c3ccccc3n2)CC1 [sotrastaurin]
How it was run: as §1

[13] = compound: CN1CC[C@H](c2c(O)cc(O)c3c(=O)cc(-c4ccccc4Cl)oc23)[C@H](O)C1 [alvocidib]
How it was run: as §1

[14] = compound: CN1CCc2c(c3ccccc3n2Cc2ccc(C(=O)NO)cc2)C1 [Tubastatin A]
How it was run: as §1

[15] = compound: CNC(=O)C1=CC=CC=C1NC2=NC(=NC=C2Cl)NC3=C(C=C(C=C3)N4CCOCC4)OC
How it was run: as §1

[16] = compound: CNC(=O)c1ccc(Nc2ncc(C(F)(F)F)c(NCc3nccnc3N(C)S(C)(=O)=O)n2)cc1 [defactinib]
How it was run: as §1

[17] = compound: CNCc1ccc(-c2[nH]c3cc(F)cc4c3c2CCNC4=O)cc1 [rucaparib]
How it was run: as §1

[18] = compound: CNc1nc(-c2ccc3c(N)n[nH]c3c2)cc(N2C[C@@H](C(=O)NC3CCCCC3)CC[C@H]2C)n1
How it was run: as §1

[19] = compound: COC(=O)N[C@@H](C)CNc1nccc(-c2cn(C(C)C)nc2-c2cc(Cl)cc(NS(C)(=O)=O)c2F)n1 [encorafenib]
How it was run: as §1

[20] = compound: COC(=O)[C@H](CCSC)NC(=O)C1=C(C=C(C=C1)NC[C@H](CS)N)C2=CC=CC=C2
How it was run: as §1

Measured: log2 fold change

ATP5F1E (UniProt P56381)
inactive: [1] -0.03 | [2] 0.094 | [3] -0.033 | [4] 0.028 | [5] 0.017 | [6] 0.036 | [7] -0.085 | [8] -0.065 | [9] 0.042 | [10] 0.079 | [11] 0.067 | [12] 0.036 | [13] 0.081 | [14] -0.059 | [15] 0.046 | [16] 0.011 | [17] 0.007 | [18] -0.021 | [19] -0.036 | [20] 0.028

ATP5MD (UniProt Q96IX5)
inactive: [1] 0.024 | [2] 0.016 | [3] 0.054 | [4] 0.102 | [5] 0.108 | [6] 0.001 | [7] 0 | [8] -0.119 | [9] -0.005 | [10] -0.151 | [11] 0.027 | [12] 0.083 | [13] -0.014 | [14] -0.089 | [15] 0.084 | [16] -0.03 | [17] 0.116 | [18] 0.075 | [19] -0.074 | [20] 0.004

ATPSCKMT (UniProt Q6P4H8)
inactive: [1] 0.108 | [2] 0.058 | [3] -0.032 | [4] 0.019 | [5] 0.018 | [6] 0.006 | [7] 0.014 | [8] 0.033 | [9] -0.175 | [10] -0.129 | [11] -0.062 | [12] 0.016 | [13] -0.193 | [14] -0.026 | [15] 0.06 | [16] -0.096 | [17] -0.061 | [18] -0.072 | [19] 0.015 | [20] -0.001

ARL6IP1 (UniProt Q15041)
inactive: [1] -0.056 | [2] -0.008 | [3] -0.076 | [4] 0.04 | [5] 0.011 | [6] -0.11 | [7] -0.005 | [8] -0.015 | [9] 0.015 | [10] 0.038 | [11] 0.004 | [12] -0.124 | [13] -0.05 | [14] -0.123 | [15] 0 | [16] 0.031 | [17] -0.072 | [18] -0.071 | [19] -0.048 | [20] 0.174

ATP5MF (UniProt P56134)
inactive: [1] 0.041 | [2] 0.052 | [3] -0.021 | [4] -0.037 | [5] -0.105 | [6] -0.082 | [7] -0.003 | [8] -0.008 | [9] 0 | [10] 0.001 | [11] 0.003 | [12] 0.038 | [13] -0.021 | [14] -0.053 | [15] -0.033 | [16] -0.014 | [17] 0.008 | [18] -0.06 | [19] -0.019 | [20] 0.003

ARPC5L (UniProt Q9BPX5)
inactive: [1] 0.016 | [2] -0.008 | [3] -0.052 | [4] 0.028 | [5] 0.025 | [6] -0.008 | [7] -0.007 | [8] -0.033 | [9] -0.06 | [10] 0.039 | [11] 0.065 | [12] -0.04 | [13] 0.02 | [14] -0.019 | [15] -0.012 | [16] -0.023 | [17] -0.004 | [18] -0.054 | [19] -0.001 | [20] 0.038

ATL3 (UniProt Q6DD88)
inactive: [1] -0.034 | [2] -0.134 | [3] 0.023 | [4] 0.02 | [5] 0.023 | [6] -0.072 | [7] 0.016 | [8] 0.024 | [9] -0.045 | [10] -0.126 | [11] 0.025 | [12] 0 | [13] -0.064 | [14] -0.004 | [15] -0.029 | [16] 0.026 | [17] -0.02 | [18] -0.025 | [19] 0.009 | [20] -0.017

ASPSCR1 isoform 2 (UniProt Q9BZE9)
inactive: [1] 0.037 | [2] -0.084 | [3] 0.071 | [4] 0.002 | [5] -0.048 | [6] -0.01 | [7] 0.038 | [8] -0.019 | [9] -0.006 | [10] 0.04 | [11] -0.031 | [12] -0.033 | [13] 0.045 | [14] 0.023 | [15] 0.03 | [16] -0.059 | [17] 0.002 | [18] 0.011 | [19] 0.107 | [20] -0.004

Two entries picked at random from the list so far:
ATPSCKMT (UniProt Q6P4H8)
inactive: [1] 0.108 | [2] 0.058 | [3] -0.032 | [4] 0.019 | [5] 0.018 | [6] 0.006 | [7] 0.014 | [8] 0.033 | [9] -0.175 | [10] -0.129 | [11] -0.062 | [12] 0.016 | [13] -0.193 | [14] -0.026 | [15] 0.06 | [16] -0.096 | [17] -0.061 | [18] -0.072 | [19] 0.015 | [20] -0.001

ATP5F1E (UniProt P56381)
inactive: [1] -0.03 | [2] 0.094 | [3] -0.033 | [4] 0.028 | [5] 0.017 | [6] 0.036 | [7] -0.085 | [8] -0.065 | [9] 0.042 | [10] 0.079 | [11] 0.067 | [12] 0.036 | [13] 0.081 | [14] -0.059 | [15] 0.046 | [16] 0.011 | [17] 0.007 | [18] -0.021 | [19] -0.036 | [20] 0.028

(further entries)

ATG101 (UniProt Q9BSB4)
inactive: [1] -0.009 | [2] -0.018 | [3] 0.001 | [4] 0.043 | [5] -0.055 | [6] 0.112 | [7] -0.009 | [8] -0.024 | [9] -0.062 | [10] -0.039 | [11] 0.027 | [12] -0.028 | [13] 0.026 | [14] 0.144 | [15] 0.014 | [16] -0.092 | [17] -0.082 | [18] -0.059 | [19] 0.053 | [20] 0.056

ATG2A isoform 3 (UniProt Q2TAZ0)
inactive: [1] -0.019 | [2] -0.119 | [3] -0.007 | [4] 0.015 | [5] -0.007 | [6] 0.004 | [7] 0.02 | [8] 0.025 | [9] -0.057 | [10] -0.176 | [11] 0.065 | [12] 0.005 | [13] -0.044 | [14] -0.034 | [15] -0.05 | [16] -0.053 | [17] -0.034 | [18] -0.067 | [19] 0.053 | [20] -0.006

ARPC2 (UniProt O15144)
inactive: [1] 0.045 | [2] -0.03 | [3] -0.036 | [4] 0.018 | [5] 0.033 | [6] -0.034 | [7] 0.002 | [8] -0.016 | [9] -0.045 | [10] 0.004 | [11] 0.045 | [12] 0.032 | [13] 0.026 | [14] -0.018 | [15] 0.043 | [16] 0.015 | [17] -0.056 | [18] -0.061 | [19] -0.011 | [20] 0

ARMC6 (UniProt Q6NXE6)
inactive: [1] 0.09 | [2] -0.067 | [3] 0.273 | [4] -0.13 | [5] -0.008 | [6] 0.003 | [7] -0.008 | [8] 0.004 | [9] 0.435 | [10] 0.074 | [11] -0.062 | [12] -0.077 | [13] 0.223 | [14] 0.053 | [15] -0.071 | [16] 0.145 | [17] 0.475 | [18] 0.015 | [19] 0.236 | [20] -0.156

ATP11B (UniProt Q9Y2G3)
inactive: [1] 0.055 | [2] 0.023 | [3] -0.012 | [4] -0.014 | [5] 0.025 | [6] -0.005 | [7] -0.044 | [8] -0.012 | [9] -0.021 | [10] -0.089 | [11] 0.031 | [12] 0.031 | [13] 0.025 | [14] -0.011 | [15] 0.006 | [16] 0.011 | [17] -0.02 | [18] -0.014 | [19] -0.014 | [20] 0.012

ATN1 (UniProt P54259)
inactive: [1] -0.001 | [2] -0.03 | [3] -0.048 | [4] 0.012 | [5] 0.009 | [6] 0.022 | [7] -0.018 | [8] -0.017 | [9] -0.025 | [10] 0.033 | [11] 0.054 | [12] -0.132 | [13] 0.128 | [14] 0.046 | [15] -0.034 | [16] -0.033 | [17] 0.019 | [18] -0.01 | [19] 0.063 | [20] -0.008

ATP6V0D1 (UniProt P61421)
inactive: [1] -0.11 | [2] 0.117 | [3] -0.012 | [4] 0.024 | [5] 0.059 | [6] 0.023 | [7] 0.003 | [8] 0 | [9] 0.099 | [10] 0.026 | [11] -0.327 | [12] -0.02 | [13] 0.047 | [14] 0.1 | [15] -0.026 | [16] 0.073 | [17] 0.07 | [18] -0.06 | [19] 0.135 | [20] -0.014

ATP2B1 isoform 1 (UniProt P20020)
inactive: [1] 0.122 | [2] 0.028 | [3] -0.031 | [4] -0.019 | [5] -0.004 | [6] -0.053 | [7] -0.044 | [8] 0.022 | [9] -0.083 | [10] 0.157 | [11] 0.019 | [12] 0.036 | [13] 0.006 | [14] -0.018 | [15] -0.033 | [16] -0.049 | [17] -0.041 | [18] 0.023 | [19] 0.001 | [20] 0.018
